# Experimental data as given in US11220671B2, “Methods for the maturation of cardiomyocytes on amniotic fluid cell-derived ECM, cellular constructs, and uses for cardiotoxicity and proarrhythmic screening of drug compounds” (STEMBIOSYS, INC., priority 2019, dated 2022).
# Assay: Composition of amniotic fluid cell-derived ECM by mass spectrometry (total spectra count)
# Details: mass spectrometry, label = protein component; for Total Spectra Count Matrix A: amniotic fluid cell-derived ECM Matrix A; for Total Spectra Count Matrix B: amniotic fluid cell-derived ECM Matrix B; for Total Spectra Count Matrix C: amniotic fluid cell-derived ECM Matrix C; for Total Spectra Count Matrix D: amniotic fluid cell-derived ECM Matrix D
molecule,measurement,value
"Keratin, type II cuticular Hb5 (protein, UniProt P78386 1-507, looked up) Keratin, type II cuticular Hb5: MSCRSYRISSGCGVTRNFSSCSAVAPKTGNRCCISAAPYRGVSCYRGLTGFGSRSLCNLGSCGPRIAVGGFRAGSCGRSFGYRSGGVCGPSPPCITTVSVNESLLTPLNLEIDPNAQCVKQEEKEQIKSLNSRFAAFIDKVRFLEQQNKLLETKWQFYQNQRCCESNLEPLFSGYIETLRREAECVEADSGRLASELNHVQEVLEGYKKKYEEEVALRATAENEFVVLKKDVDCAYLRKSDLEANVEALVEESSFLRRLYEEEIRVLQAHISDTSVIVKMDNSRDLNMDCIIAEIKAQYDDVASRSRAEAESWYRSKCEEMKATVIRHGETLRRTKEEINELNRMIQRLTAEIENAKCQRAKLEAAVAEAEQQGEAALSDARCKLAELEGALQKAKQDMACLLKEYQEVMNSKLGLDIEIATYRRLLEGEEHRLCEGVGSVNVCVSSSRGGVSCGGLSYSTTPGRQITSGPSAIGGSITVVAPDSCAPCQPRSSSFSCGSSRSVRFA",Total Spectra Count Matrix A,0
same,Total Spectra Count Matrix B,3
same,Total Spectra Count Matrix C,0
same,Total Spectra Count Matrix D,0
"Keratin, type II cytoskeletal 1 (protein, UniProt P04264 2-644, looked up) Keratin, type II cytoskeletal …: SRQFSSRSGYRSGGGFSSGSAGIINYQRRTTSSSTRRSGGGGGRFSSCGGGGGSFGAGGGFGSRSLVNLGGSKSISISVARGGGRGSGFGGGYGGGGFGGGGFGGGGFGGGGIGGGGFGGFGSGGGGFGGGGFGGGGYGGGYGPVCPPGGIQEVTINQSLLQPLNVEIDPEIQKVKSREREQIKSLNNQFASFIDKVRFLEQQNQVLQTKWELLQQVDTSTRTHNLEPYFESFINNLRRRVDQLKSDQSRLDSELKNMQDMVEDYRNKYEDEINKRTNAENEFVTIKKDVDGAYMTKVDLQAKLDNLQQEIDFLTALYQAELSQMQTQISETNVILSMDNNRSLDLDSIIAEVKAQYEDIAQKSKAEAESLYQSKYEELQITAGRHGDSVRNSKIEISELNRVIQRLRSEIDNVKKQISNLQQSISDAEQRGENALKDAKNKLNDLEDALQQAKEDLARLLRDYQELMNTKLALDLEIATYRTLLEGEESRMSGECAPNVSVSVSTSHTTISGGGSRGGGGGGYGSGGSSYGSGGGSYGSGGGGGGGRGSYGSGGSSYGSGGGSYGSGGGGGGHGSYGSGSSSGGYRGGSGGGGGGSSGGRGSGGGSSGGSIGGRGSSSGGVKSSGGSSSVKFVSTTYSGVTR",Total Spectra Count Matrix A,0
same,Total Spectra Count Matrix B,497
same,Total Spectra Count Matrix C,0
same,Total Spectra Count Matrix D,0
"Keratin, type II cytoskeletal 7 (protein, UniProt P08729 2-469, looked up) Keratin, type II cytoskeletal …: SIHFSSPVFTSRSAAFSGRGAQVRLSSARPGGLGSSSLYGLGASRPRVAVRSAYGGPVGAGIREVTINQSLLAPLRLDADPSLQRVRQEESEQIKTLNNKFASFIDKVRFLEQQNKLLETKWTLLQEQKSAKSSRLPDIFEAQIAGLRGQLEALQVDGGRLEAELRSMQDVVEDFKNKYEDEINHRTAAENEFVVLKKDVDAAYMSKVELEAKVDALNDEINFLRTLNETELTELQSQISDTSVVLSMDNSRSLDLDGIIAEVKAQYEEMAKCSRAEAEAWYQTKFETLQAQAGKHGDDLRNTRNEISEMNRAIQRLQAEIDNIKNQRAKLEAAIAEAEERGELALKDARAKQEELEAALQRGKQDMARQLREYQELMSVKLALDIEIATYRKLLEGEESRLAGDGVGAVNISVMNSTGGSSSGGGIGLTLGGTMGSNALSFSSSAGPGLLKAYSIRTASASRRSARD",Total Spectra Count Matrix A,0
same,Total Spectra Count Matrix B,0
same,Total Spectra Count Matrix C,0
same,Total Spectra Count Matrix D,135
"Kinesin-like protein KIFC2 (protein, UniProt Q96AC6 1-838, looked up) Kinesin-like protein KIFC2: MYAFYSLLIYIFYSLFRRDGGAAAAAEPGDPAQRARKPRGRRRPDLPAPELWTELTGLAASSEPEDGSEGAAEGRAAAVSLEEALLRLAEFLSVQLGAEESCGGPADLGQSGEVPSLLTVTSQLLALLAWLRSPRGRQALLQGTQPAPRVRPPSPDGSTSQEESPSHFTAVPGEPLGDETQGQQPLQLEEDQRAWQRLEQLILGQLEELKQQLEQQEEELGRLRLGVGATDSEKRVQHLTLENEALKQSLSLMRDLLLHWGPGPPIRAPQEEAEALLELQGRLQEAQDTTEALRAQLGVQEVQLQGLQGALQQLQQETEQNCRRELQQMHGQLAGLRARMASLRQGCGDLRGLVSTFTQSCQGSLSEARGQVSWALGALSSGGPGTQLPEGQQGPPAGCPGRLPELKGNIRVLCRLRPGTSSSLVSVEPGPGGTVTTCYRGRHRRFRLDWVFPPDASQEEVFRELEPAVLSCLRGYSVCIFTYGQTGTGKTYSMEGPPEDPGIVPRALQSLFREMGAGRQHRVTLSMVEIYNEAVRDLLAPGPPERLAVRQGPEGQGGIQVAGLTHWDVPNLETLHQMLKLGRSNRATAATAMNQRSSRSHALVTLTLRAASPPRAPGTAGTLHLVDLAGSERARKAGAAGPPRGDPDGARRLREAQTINRSLLALGGVMAALRAHRPHVPFRDSQLTRLLQPALGPGTTAVLLLQVGAGAGQVCACRSPPTRARPPAPLARRSPRGRRISGRQSAPSSSPTEWVKWSWGQPGAAGSRAPPGRLLPSAPTLRSPGPPAPLRRPLAVLHAPVPTTARARLSRPQRACPSSPGSRPCPWGLRPGLCWQRR",Total Spectra Count Matrix A,0
same,Total Spectra Count Matrix B,2
same,Total Spectra Count Matrix C,0
same,Total Spectra Count Matrix D,1
"Ladinin-1 (protein, UniProt O00515 1-517, looked up) Ladinin-1: MAVSRKDWSALSSLARQRTLEDEEEQERERRRRHRNLSSTTDDEAPRLSQNGDRQASASERLPSVEEAEVPKPLPPASKDEDEDIQSILRTRQERRQRRQVVEAAQAPIQERLEAEEGRNSLSPVQATQKPLVSKKELEIPPRRRLSREQRGPWALEEESLVGREPEERKKGVPEKSPVLEKSSMPKKTAPEKSLVSDKTSISEKVLASEKTSLSEKIAVSEKRNSSEKKSVLEKTSVSEKSLAPGMALGSGRRLVSEKASIFEKALASEKSPTADAKPAPKRATASEQPLAQEPPASGGSPATTKEQRGRALPGKNLPSLAKQGASDPPTVASRLPPVTLQVKIPSKEEEADMSSPTQRTYSSSLKRSSPRTISFRMKPKKENSETTLTRSASMKLPDNTVKLGEKLERYHTAIRRSESVKSRGLPCTELFVAPVGVASKRHLFEKELAGQSRAEPASSRKENLRLSGVVTSRLNLWISRTQESGDQDPQEAQKASSATERTQWGQKSDSSLDAEV",Total Spectra Count Matrix A,0
same,Total Spectra Count Matrix B,0
same,Total Spectra Count Matrix C,0
same,Total Spectra Count Matrix D,6
"Laminin subunit beta-3 (protein, UniProt Q13751 18-1172, looked up) Laminin subunit beta-3: QQACSRGACYPPVGDLLVGRTRFLRASSTCGLTKPETYCTQYGEWQMKCCKCDSRQPHNYYSHRVENVASSSGPMRWWQSQNDVNPVSLQLDLDRRFQLQEVMMEFQGPMPAGMLIERSSDFGKTWRVYQYLAADCTSTFPRVRQGRPQSWQDVRCQSLPQRPNARLNGGKVQLNLMDLVSGIPATQSQKIQEVGEITNLRVNFTRLAPVPQRGYHPPSAYYAVSQLRLQGSCFCHGHADRCAPKPGASAGPSTAVQVHDVCVCQHNTAGPNCERCAPFYNNRPWRPAEGQDAHECQRCDCNGHSETCHFDPAVFAASQGAYGGVCDNCRDHTEGKNCERCQLHYFRNRRPGASIQETCISCECDPDGAVPGAPCDPVTGQCVCKEHVQGERCDLCKPGFTGLTYANPQGCHRCDCNILGSRRDMPCDEESGRCLCLPNVVGPKCDQCAPYHWKLASGQGCEPCACDPHNSLSPQCNQFTGQCPCREGFGGLMCSAAAIRQCPDRTYGDVATGCRACDCDFRGTEGPGCDKASGRCLCRPGLTGPRCDQCQRGYCNRYPVCVACHPCFQTYDADLREQALRFGRLRNATASLWSGPGLEDRGLASRILDAKSKIEQIRAVLSSPAVTEQEVAQVASAILSLRRTLQGLQLDLPLEEETLSLPRDLESLDRSFNGLLTMYQRKREQFEKISSADPSGAFRMLSTAYEQSAQAAQQVSDSSRLLDQLRDSRREAERLVRQAGGGGGTGSPKLVALRLEMSSLPDLTPTFNKLCGNSRQMACTPISCPGELCPQDNGTACGSRCRGVLPRAGGAFLMAGQVAEQLRGFNAQLQRTRQMIRAAEESASQIQSSAQRLETQVSASRSQMEEDVRRTRLLIQQVRDFLTDPDTDAATIQEVSEAVLALWLPTDSATVLQKMNEIQAIAARLPNVDLVLSQTKQDIARARRLQAEAEEARSRAHAVEGQVEDVVGNLRQGTVALQEAQDTMQGTSRSLRLIQDRVAEVQQVLRPAEKLVTSMTKQLGDFWTRMEELRHQARQQGAEAVQAQQLAEGASEQALSAQEGFERIKQKYAELKDRLGQSSMLGEQGARIQSVKTEAEELFGETMEMMDRMKDMELELLRGSQAIMLRSADLTGLEKRVEQIRDHINGRVLYYATCK",Total Spectra Count Matrix A,0
same,Total Spectra Count Matrix B,10
same,Total Spectra Count Matrix C,0
same,Total Spectra Count Matrix D,0
"Magnesium transporter protein 1 (protein, UniProt Q9H0U3 30-335, looked up) Dolichyl-diphosphooligosacchar …: QRKKEMVLSEKVSQLMEWTNKRPVIRMNGDKFRRLVKAPPRNYSVIVMFTALQLHRQCVVCKQADEEFQILANSWRYSSAFTNRIFFAMVDFDEGSDVFQMLNMNSAPTFINFPAKGKPKRGDTYELQVRGFSAEQIARWIADRTDVNIRVIRPPNYAGPLMLGLLLAVIGGLVYLRRSNMEFLFNKTGWAFAALCFVLAMTSGQMWNHIRGPPYAHKNPHTGHVNYIHGSSQAQFVAETHIVLLFNGGVTLGMVLLCEAATSDMDIGKRKIMCVAGIGLVVLFFSWMLSIFRSKYHGYPYSFLMS",Total Spectra Count Matrix A,0
same,Total Spectra Count Matrix B,4
same,Total Spectra Count Matrix C,1
same,Total Spectra Count Matrix D,1
"MARCKS-related protein (protein, UniProt P49006 2-195, looked up) MARCKS-related protein: GSQSSKAPRGDVTAEEAAGASPAKANGQENGHVKSNGDLSPKGEGESPPVNGTDEAAGATGDAIEPAPPSQGAEAKGEVPPKETPKKKKKFSFKKPFKLSGLSFKRNRKEGGGDSSASSPTEEEQEQGEIGACSDEGTAQEGKAAATPESQEPQAKGAEASAASEEEAGPQATEPSTPSGPESGPTPASAEQNE",Total Spectra Count Matrix A,0
same,Total Spectra Count Matrix B,4
same,Total Spectra Count Matrix C,0
same,Total Spectra Count Matrix D,0
